No constants are given. Whether binding was seen depends on the method and setting. A result given as binding can be weak or reduced; the word gives no strength.

The values below come from patent US20240010730A1.

This test addresses monkey TIGIT (hybridoma screening, Table 1) (monkey). In words: ELISA/FACS screening.

B1: B3/29F6 (antibody, V domains shown)
VH: DVQLQESGPGLVKPSQSLSLTCTVTGYSITSDYAWIWIRQFPGNKVEWMGYITSSGSTSYNPSLKSRISFTRDTSKNQFFLQLTSVTTEDTATYYCARLDFGNYGGAMDYWGQGTSVTVSS
VL: DIVMTQSHKFMSTSIGDRVSITCKASQHVSTAVAWYQQKPGQSPKLLIYSASYRYTGVPDRFTGSRSGTDFTFTISSVQAEDLAVYYCQQHYITPYTFGGGTKLEIK
Regarding B1, the binding result is listed as “binds”.
